# From PubChem BioAssay AID2685 (National Center for Advancing Translational Sciences (NCATS), 2010)
# The list shows a part of the results. Further columns of the screen follow, without active or inactive calls. The list favours compounds with an active or inconclusive main result. The note in brackets gives the kind of curve behind each potency; many fits are weak.
# Assay: qHTS Assay for Lipid Storage Modulators in Drosophila S3 Cells;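 on cell number change: cells counted by Cell Tracker Red CMTPX staining in the red channel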
# Conditions: BODIPY lipid droplet fluorescence, 18-24 h; for cell number change: measured here: cell count max response, cells fed with added oleic acid
# Method in brief: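 Drosophila S3 cells loaded with oleic acid (400 uM, as added) and compounds at several concentrations; lipid droplets imaged by 488-nm laser-scanning cytometry, 500–530 nm intensity and object ratio to cell channel. Percent activity normalized to 20 uM Triacsin C.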
# [1] = measured here: cell number channel AC50, cells fed with added oleic acid
# [2] = measured here: lipid fluorescence (Fed channel) AC50, cells fed with added oleic acid
Structure (SMILES),cell number change,AC50 [1],AC50 [2]
CCOC(=O)c1ccoc1CSCc1ccc(C(=O)OC)o1,-8.5%,"0.00517 µM [falling, full curve, poor fit]",–
COc1ccc(OC)c(NC(=O)CSc2nnnn2C2CCCC2)c1,-0.403%,–,"20.6 µM [falling, single point]"
Cc1cc(OCC(=O)OC(C)C(=O)Nc2ccc(N3CCOCC3)cc2)ccc1Cl (stereo not drawn),9.36%,–,"1.16 µM [rising, full curve]"
O=C(NC(=S)NCC1CCCO1)c1ccco1 (stereo not drawn),–,"2.06 µM [rising, single point]","0.058 µM [rising, full curve, poor fit]"
Cc1ccc(S(=O)(=O)N2[C@@H](c3ccccc3)C(C(=O)O)=CC[C@H]2c2cccs2)cc1,-4.15%,–,"29.1 µM [rising, single point]"
COc1ccccc1-n1cnc2cc(NCc3ccco3)ccc21,-31.3%,"20.6 µM [falling, single point]",–
Cc1nn(C)c(C(=O)N/N=C/c2ccccc2)c1[N+](=O)[O-],-41%,"4.61 µM [falling, single point]","0.731 µM [falling, full curve]"
CCC(=O)N1CCCC(C(=O)c2ccc(-c3ccccc3)cc2)C1 (stereo not drawn),-11.5%,–,"6.51 µM [rising, single point]"
Cc1c(C(=O)Nc2ccccn2)sc2nc3n(c(=O)c12)CCC3,-44.5%,"2.06 µM [falling, full curve, poor fit]","2.91 µM [falling, full curve]"
CC(C)NC(=O)CC(=O)NN=C1CCCCC1,10.8%,–,"0.13 µM [rising, full curve, poor fit]"
COc1cc(CN2CCCC(CCC(=O)NCc3ccc(C)o3)C2)cc2c1OCO2 (stereo not drawn),-1.86%,–,"3.26 µM [rising, single point]"
O=S(=O)(Nc1cccc(S(=O)(=O)N2CCCC2)c1)c1ccc(Cl)s1,23.8%,–,–
CC(=O)c1ccccc1NC(=O)COC(=O)CN1C(=O)C2CCCCC2C1=O (stereo not drawn),-11.8%,–,"3.66 µM [rising, partial curve]"
O=C(Nc1ccnn1C1CCN(C/C=C/c2ccccc2)CC1)c1ccccc1,5.45%,"3.66 µM [rising, single point]","6.51 µM [falling, single point]"
CCOC(=O)N1CCN(C(=O)C(C)SCc2ccccc2)CC1 (stereo not drawn),2.59%,–,–
CCCCSc1nc2c(cnn2-c2ccc(C)c(C)c2)c(=O)[nH]1,6.94%,–,"1.84 µM [falling, full curve, poor fit]"
CC(C)n1c(NCc2ccc(Cl)cc2)nc2ccccc21,–,–,"29.1 µM [rising, single point]"
O=S(=O)(Nc1ccc2c(c1)OCCO2)c1ccc2oc3ccccc3c2c1,8.63%,–,"1.84 µM [rising, partial curve]"
COc1ccc2cc3cc(C(=O)N4CCCCCC4)oc3nc2c1,6.73%,–,–
COc1ccccc1C(=O)NC(=S)NC12CC3CC(CC(C3)C1)C2,35.7%,"0.259 µM [rising, full curve]",–

# Another view of part of the listing above:
Structure (SMILES)	cell number change	AC50 [1]	AC50 [2]
CC(C)NC(=O)CC(=O)NN=C1CCCCC1	10.8%	–	0.13 µM [rising, full curve, poor fit]
COc1cc(CN2CCCC(CCC(=O)NCc3ccc(C)o3)C2)cc2c1OCO2 (stereo not drawn)	-1.86%	–	3.26 µM [rising, single point]

# Next compounds follow:

Structure (SMILES),cell number change,AC50 [1],AC50 [2]
O=C(C1COc2ccccc2O1)N1CCOCC1 (stereo not drawn),-22.5%,"3.66 µM [falling, full curve, poor fit]","29.1 µM [falling, single point]"
O=C(Cc1n[nH]c(=O)c2ccccc12)NCc1ccc(Cl)cc1,-49.9%,"29.1 µM [falling, single point]","29.1 µM [falling, single point]"
COc1ccc(C(=O)Oc2cc(OC)cc(OC)c2C(C)=O)cc1,20.8%,–,–
O=c1[nH][nH]cc1C=Nc1cc(Cl)ccc1O,-24.2%,"0.146 µM [falling, full curve, poor fit]","0.146 µM [falling, full curve, poor fit]"
COc1cccc(Cn2nnc(C(=O)NCc3ccccc3Cl)c2N)c1,-12.5%,"0.00517 µM [falling, full curve, poor fit]",–
CN(CC(=O)Nc1cccc(F)c1)C(=O)c1cccc(S(=O)(=O)N2CC3(C)CC2CC(C)(C)C3)c1 (stereo not drawn),100%,"4.11 µM [rising, full curve]","14.6 µM [falling, partial curve]"
CC(C)OCCCNC(=O)c1cn(C)c2ccc(S(=O)(=O)N(C)C3CCCCC3)cc2c1=O,-38.4%,"9.2 µM [falling, partial curve]",–
C=CCNCCCOc1ccc(C)cc1Br,-50.5%,"29.1 µM [falling, single point]",–
CCCCOc1ccc(-n2nc(C)cc2C)nn1,11.6%,–,"0.731 µM [rising, single point]"
CCOC(=O)C1=C(COC(=O)/C=C/c2cccc([N+](=O)[O-])c2)NC(=O)NC1C (stereo not drawn),-66.3%,"14.6 µM [falling, partial curve, poor fit]",–
Cc1ccc(NCC(O)C(O)C(O)CO)c(N=Nc2ccccc2)c1C (stereo not drawn),-10.7%,–,"11.6 µM [falling, partial curve, poor fit]"
CC(C)CCn1nnnc1CN1CCN(c2ccccc2)CC1,-1.64%,"0.517 µM [falling, single point]",–
O=C(NNC(=O)c1ccc(S(=O)(=O)N2CCOCC2)cc1)c1ccccc1,-11.8%,–,–
CCc1cc(C(c2ccc(F)cc2)N2CCOCC2)c(NC(=O)c2ccccc2)s1 (stereo not drawn),-8.81%,–,–
COc1ccc(CCn2c(=N)c(C(=O)N3CCN(C)CC3)cc3c(=O)n4ccccc4nc32)cc1,-31.6%,"29.1 µM [falling, single point]","0.411 µM [rising, full curve]"
Cc1ccc(CNC(=O)CCCN2C(=S)NC(C)(C)CC2C)cc1 (stereo not drawn),4.94%,–,–
Cc1ccc(C)c(NC(=O)COC(=O)CCC(=O)c2cccs2)c1,-43.8%,–,"2.06 µM [rising, partial curve]"
CS(=O)(=O)N(CC(=O)O)c1ccc(C23CC4CC(CC(C4)C2)C3)cc1,-0.365%,–,–
O=C(Nc1ccc(N2CCCC2)cc1)C(c1ccccc1)c1ccccc1,4.17%,"2.06 µM [falling, partial curve]","1.64 µM [falling, partial curve]"
